# Some of the results follow.
# B1: EULS2 M3 (Oryza sativa) (protein)
# chain: MVYCRANPNYAMTARNGAVVLAPANPKDEYQHWIKDMRWSTSIKDEEGYPAFALVNKATGQAIKHSLGQSHPVRLVPYNPEVMDESVLWTESRDVGNGFRCIRMVNNIYLNFDAFHGDKYHGGVRDGTDIVLWKLCEGDSLRWKIQPYYILEQKLISEEDLNSAVDHHHHHH
# Columns and labels:
# Experiment in all cases: glycan array binding signal (z-score within array); higher = stronger binding
# Settings in all cases: glycan notation: IUPAC condensed, linker removed
# [1] = biological target: Gal(b1-3)GlcNAc(b1-6)[Gal(b1-3)]GalNAc
# Outline: (§1)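 Glycan array data came from 3228 arrays in the Consortium for Functional Glycomics database, and only arrays with an available protein sequence were kept. Glycan names were put into IUPAC-condensed notation, and columns mapping to the same glycan were averaged. The binding signal is a within-array Z-score, averaged across arrays of one protein sequence run at different concentrations or buffers and across linkers. A negative Z-score can be read as non-binding.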
# Gal(b1-3)GlcNAc6S = biological target: Gal(b1-3)GlcNAc6S
# Outline: as §1
# [2] = biological target: Gal(b1-3)[Fuc(a1-4)]GlcNAc
# Outline: as §1
# [3] = biological target: Gal(b1-3)[Fuc(a1-4)]GlcNAc(b1-2)Man
# Outline: as §1
# [4] = biological target: Gal(b1-3)[Fuc(a1-4)]GlcNAc(b1-2)Man(a1-3)[Gal(b1-3)[Fuc(a1-4)]GlcNAc(b1-2)Man(a1-6)]Man(b1-4)GlcNAc(b1-4)[Fuc(a1-6)]GlcNAc
# Outline: as §1
# [5] = biological target: Gal(b1-3)[Fuc(a1-4)]GlcNAc(b1-3)Gal(b1-3)[Fuc(a1-4)]GlcNAc
# Outline: as §1
# [6] = biological target: Gal(b1-3)[Fuc(a1-4)]GlcNAc(b1-3)Gal(b1-4)[Fuc(a1-3)]GlcNAc
# Outline: as §1
# [7] = biological target: Gal(b1-3)[Fuc(a1-4)]GlcNAc(b1-6)GalNAc
# Outline: as §1
# [8] = biological target: Gal(b1-3)[GlcNAc(b1-6)]GalNAc
# Outline: as §1
# [9] = biological target: Gal(b1-3)[Neu5Ac(a2-6)]GalNAc
# Outline: as §1
# [10] = biological target: Gal(b1-3)[Neu5Ac(a2-6)]GlcNAc(b1-4)Gal(b1-4)Glc
# Outline: as §1
# [11] = biological target: Gal(b1-3)[Neu5Ac(b2-6)]GalNAc
# Outline: as §1
# Gal(b1-4)Gal = biological target: Gal(b1-4)Gal
# Outline: as §1
# [12] = biological target: Gal(b1-4)GalNAc(a1-3)[Fuc(a1-2)]Gal(b1-4)GlcNAc
# Outline: as §1
# [13] = biological target: Gal(b1-4)GalNAc(b1-3)[Fuc(a1-2)]Gal(b1-4)GlcNAc
# Outline: as §1
# Gal(b1-4)Glc = biological target: Gal(b1-4)Glc
# Outline: as §1
# Gal(b1-4)Glc6S = biological target: Gal(b1-4)Glc6S
# Outline: as §1
# Gal(b1-4)GlcNAc = biological target: Gal(b1-4)GlcNAc
# Outline: as §1
# [14] = biological target: Gal(b1-4)GlcNAc(a1-6)Gal(b1-4)GlcNAc
# Outline: as §1
# Gal(b1-4)GlcNAc(b1-2)Man = biological target: Gal(b1-4)GlcNAc(b1-2)Man
# Outline: as §1
# [15] = biological target: Gal(b1-4)GlcNAc(b1-2)Man(a1-3)Man(b1-4)GlcNAc(b1-4)GlcNAc
# Outline: as §1
# [16] = biological target: Gal(b1-4)GlcNAc(b1-2)Man(a1-3)[Gal(b1-4)GlcNAc(b1-2)Man(a1-6)]Man(b1-4)GlcNAc(b1-4)GlcNAc
# Outline: as §1
# [17] = biological target: Gal(b1-4)GlcNAc(b1-2)Man(a1-3)[Gal(b1-4)GlcNAc(b1-2)Man(a1-6)]Man(b1-4)GlcNAc(b1-4)[Fuc(a1-6)]GlcNAc
# Outline: as §1
# [18] = biological target: Gal(b1-4)GlcNAc(b1-2)Man(a1-3)[Gal(b1-4)GlcNAc(b1-2)Man(a1-6)][Gal(b1-4)GlcNAc(b1-4)]Man(b1-4)GlcNAc(b1-4)[Fuc(a1-6)]GlcNAc
# Outline: as §1
# [19] = biological target: Gal(b1-4)GlcNAc(b1-2)Man(a1-3)[Gal(b1-4)GlcNAc(b1-2)Man(a1-6)][GlcNAc(b1-4)]Man(b1-4)GlcNAc(b1-4)[Fuc(a1-6)]GlcNAc
# Outline: as §1
# [20] = biological target: Gal(b1-4)GlcNAc(b1-2)Man(a1-3)[GlcNAc(b1-2)Man(a1-6)]Man(b1-4)GlcNAc(b1-4)GlcNAc
# Outline: as §1
# [21] = biological target: Gal(b1-4)GlcNAc(b1-2)Man(a1-3)[GlcNAc(b1-4)][Gal(b1-4)GlcNAc(b1-2)Man(a1-6)]Man(b1-4)GlcNAc(b1-4)GlcNAc
# Outline: as §1
# [22] = biological target: Gal(b1-4)GlcNAc(b1-2)Man(a1-3)[Man(a1-6)]Man(b1-4)GlcNAc(b1-4)GlcNAc
# Outline: as §1
# [23] = biological target: Gal(b1-4)GlcNAc(b1-2)Man(a1-6)Man(b1-4)GlcNAc(b1-4)GlcNAc
# Outline: as §1
# [24] = biological target: Gal(b1-4)GlcNAc(b1-2)Man(a1-6)[GlcNAc(b1-2)Man(a1-3)]Man(b1-4)GlcNAc(b1-4)GlcNAc
# Outline: as §1
# [25] = biological target: Gal(b1-4)GlcNAc(b1-2)Man(a1-6)[Man(a1-3)]Man(b1-4)GlcNAc(b1-4)GlcNAc
# Outline: as §1
# [26] = biological target: Gal(b1-4)GlcNAc(b1-2)[Gal(b1-4)GlcNAc(b1-4)]Man(a1-3)[Gal(b1-4)GlcNAc(b1-2)Man(a1-6)]Man(b1-4)GlcNAc(b1-4)GlcNAc
# Outline: as §1
# [27] = biological target: Gal(b1-4)GlcNAc(b1-2)[Gal(b1-4)GlcNAc(b1-4)]Man(a1-3)[Gal(b1-4)GlcNAc(b1-2)[Gal(b1-4)GlcNAc(b1-6)]Man(a1-6)]Man(b1-4)GlcNAc(b1-4)GlcNAc
# Outline: as §1
# [28] = biological target: Gal(b1-4)GlcNAc(b1-2)[Gal(b1-4)GlcNAc(b1-4)]Man(a1-3)[GlcNAc(b1-4)][Gal(b1-4)GlcNAc(b1-2)Man(a1-6)]Man(b1-4)GlcNAc(b1-4)GlcNAc
# Outline: as §1
# [29] = biological target: Gal(b1-4)GlcNAc(b1-2)[Gal(b1-4)GlcNAc(b1-4)]Man(a1-3)[GlcNAc(b1-4)][Gal(b1-4)GlcNAc(b1-2)[Gal(b1-4)GlcNAc(b1-6)]Man(a1-6)]Man(b1-4)GlcNAc(b1-4)GlcNAc
# Outline: as §1
# [30] = biological target: Gal(b1-4)GlcNAc(b1-2)[Gal(b1-4)GlcNAc(b1-6)]Man(a1-6)[Gal(b1-4)GlcNAc(b1-2)Man(a1-3)]Man(b1-4)GlcNAc(b1-4)GlcNAc
# Outline: as §1
# [31] = biological target: Gal(b1-4)GlcNAc(b1-2)[Gal(b1-4)GlcNAc(b1-6)]Man(a1-6)[Gal(b1-4)GlcNAc(b1-2)Man(a1-3)]Man(b1-4)GlcNAc(b1-4)[Fuc(a1-6)]GlcNAc
# Outline: as §1
# [32] = biological target: Gal(b1-4)GlcNAc(b1-2)[Gal(b1-4)GlcNAc(b1-6)]Man(a1-6)[GlcNAc(b1-4)][Gal(b1-4)GlcNAc(b1-2)Man(a1-3)]Man(b1-4)GlcNAc(b1-4)GlcNAc
# Outline: as §1
# [33] = biological target: Gal(b1-4)GlcNAc(b1-2)[Gal(b1-4)GlcNAc(b1-6)]Man(a1-6)[GlcNAc(b1-4)][Gal(b1-4)GlcNAc(b1-2)[Gal(b1-4)GlcNAc(b1-4)]Man(a1-3)]Man(b1-4)GlcNAc(b1-4)[Fuc(a1-6)]GlcNAc
# Outline: as §1
# [34] = biological target: Gal(b1-4)GlcNAc(b1-3)Gal(b1-3)GalNAc
# Outline: as §1
# [35] = biological target: Gal(b1-4)GlcNAc(b1-3)Gal(b1-3)GlcNAc
# Outline: as §1
# [36] = biological target: Gal(b1-4)GlcNAc(b1-3)Gal(b1-4)Glc
# Outline: as §1
# [37] = biological target: Gal(b1-4)GlcNAc(b1-3)Gal(b1-4)GlcNAc
# Outline: as §1
# [38] = biological target: Gal(b1-4)GlcNAc(b1-3)Gal(b1-4)GlcNAc(b1-2)Man(a1-3)[Gal(b1-4)GlcNAc(b1-3)Gal(b1-4)GlcNAc(b1-2)Man(a1-6)]Man(b1-4)GlcNAc(b1-4)GlcNAc
# Outline: as §1
# [39] = biological target: Gal(b1-4)GlcNAc(b1-3)Gal(b1-4)GlcNAc(b1-2)Man(a1-3)[Gal(b1-4)GlcNAc(b1-3)Gal(b1-4)GlcNAc(b1-2)Man(a1-6)]Man(b1-4)GlcNAc(b1-4)[Fuc(a1-6)]GlcNAc
# Outline: as §1
binder,measurement,setting,value
B1,glycan array binding signal (z-score),[1],-0.411
same,glycan array binding signal (z-score),Gal(b1-3)GlcNAc6S,0.193
same,glycan array binding signal (z-score),[2],0.71
same,glycan array binding signal (z-score),[3],1.17
same,glycan array binding signal (z-score),[4],-0.151
same,glycan array binding signal (z-score),[5],2.13
same,glycan array binding signal (z-score),[6],-0.726
same,glycan array binding signal (z-score),[7],-0.902
same,glycan array binding signal (z-score),[8],-0.139
same,glycan array binding signal (z-score),[9],-0.038
same,glycan array binding signal (z-score),[10],-0.281
same,glycan array binding signal (z-score),[11],-0.138
same,glycan array binding signal (z-score),Gal(b1-4)Gal,0.123
same,glycan array binding signal (z-score),[12],-0.34
same,glycan array binding signal (z-score),[13],-0.158
same,glycan array binding signal (z-score),Gal(b1-4)Glc,0.194
same,glycan array binding signal (z-score),Gal(b1-4)Glc6S,-0.2
same,glycan array binding signal (z-score),Gal(b1-4)GlcNAc,-0.275
same,glycan array binding signal (z-score),[14],-1.03
same,glycan array binding signal (z-score),Gal(b1-4)GlcNAc(b1-2)Man,-0.082
same,glycan array binding signal (z-score),[15],0.165
same,glycan array binding signal (z-score),[16],-0.433
same,glycan array binding signal (z-score),[17],0.02
same,glycan array binding signal (z-score),[18],-0.303
same,glycan array binding signal (z-score),[19],-0.045
same,glycan array binding signal (z-score),[20],-0.718
same,glycan array binding signal (z-score),[21],0.316
same,glycan array binding signal (z-score),[22],0.111
same,glycan array binding signal (z-score),[23],-0.412
same,glycan array binding signal (z-score),[24],-0.251
same,glycan array binding signal (z-score),[25],0.598
same,glycan array binding signal (z-score),[26],-0.298
same,glycan array binding signal (z-score),[27],-0.308
same,glycan array binding signal (z-score),[28],-0.237
same,glycan array binding signal (z-score),[29],-0.185
same,glycan array binding signal (z-score),[30],-0.379
same,glycan array binding signal (z-score),[31],-1.03
same,glycan array binding signal (z-score),[32],-0.564
same,glycan array binding signal (z-score),[33],-0.793
same,glycan array binding signal (z-score),[34],0.274
same,glycan array binding signal (z-score),[35],0.233
same,glycan array binding signal (z-score),[36],-0.287
same,glycan array binding signal (z-score),[37],-0.453
same,glycan array binding signal (z-score),[38],0.116
same,glycan array binding signal (z-score),[39],0.738

# Pulled one by one from the entries so far, four records:
binder,measurement,setting,value
B1,glycan array binding signal (z-score),[3],1.17
same,glycan array binding signal (z-score),Gal(b1-4)GlcNAc,-0.275
same,glycan array binding signal (z-score),[28],-0.237
same,glycan array binding signal (z-score),[10],-0.281

# — the supplement of paper PMC8728848
